PubChem BioAssay AID1671190 (National Center for Advancing Translational Sciences (NCATS), 2021)
Several values for one entry are separate records, joined by “and”; a condition that tells them apart may be missing. Equal values may be shown once. About 6,100 (1.1%) of roughly 580,000 compounds were called active. Inconclusive means that the source gave no clear call. Such entries were picked first, then a sample of the others. Calls follow the shape of the dose curve; as a rule, active = well fitted inhibition curve with a large enough effect; inconclusive = small, poorly fitted or top-dose-only effect, or another doubt; inactive = no such curve, though single readings can be large or run the other way. A potency beside an inconclusive call is a rough fit, not a confirmed value.

Protein sequences, listed by entry. Tags and fused reporters are not part of them. Lines headed by an entry give the natural chain unless they say otherwise; changes in a name come on top.
UniProt P18054: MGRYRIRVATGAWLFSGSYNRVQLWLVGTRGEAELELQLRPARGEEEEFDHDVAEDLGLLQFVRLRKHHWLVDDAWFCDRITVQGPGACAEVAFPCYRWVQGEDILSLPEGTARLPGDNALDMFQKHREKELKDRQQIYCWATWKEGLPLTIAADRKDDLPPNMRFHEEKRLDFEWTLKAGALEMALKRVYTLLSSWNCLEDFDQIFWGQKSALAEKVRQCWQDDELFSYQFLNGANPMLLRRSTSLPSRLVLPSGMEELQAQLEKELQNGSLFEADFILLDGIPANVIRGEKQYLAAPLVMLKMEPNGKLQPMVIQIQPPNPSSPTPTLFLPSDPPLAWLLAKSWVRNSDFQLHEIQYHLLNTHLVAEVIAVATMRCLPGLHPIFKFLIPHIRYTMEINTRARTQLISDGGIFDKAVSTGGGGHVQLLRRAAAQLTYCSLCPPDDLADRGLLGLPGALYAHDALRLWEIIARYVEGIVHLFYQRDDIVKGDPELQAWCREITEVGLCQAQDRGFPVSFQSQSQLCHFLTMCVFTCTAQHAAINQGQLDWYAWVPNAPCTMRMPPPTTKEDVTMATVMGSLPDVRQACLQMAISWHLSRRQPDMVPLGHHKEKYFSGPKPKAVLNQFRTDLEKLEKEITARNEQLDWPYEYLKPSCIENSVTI

target: Polyunsaturated fatty acid lipoxygenase ALOX12 (Homo sapiens) (UniProt P18054); assay: Primary qHTS assay for inhibitors of human arachidonate 12S-lipoxygenase (ALOX12): Round 2; conditions: purified 12hLO, xylenol orange hydroperoxide absorbance; activity change, negative = inhibition: at 108 µM (top of the series) unless noted
Method in brief: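 Purified human 12hLO at 150 nM in 25 mM Hepes, 0.01% Triton X-100, pH 7.0, preincubated 15 min at room temperature with compound. Reaction started with 40 uM arachidonic acid, 30 min at room temperature. Hydroperoxide measured by Fe-xylenol orange, 573/405 nm absorbance ratio.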
% is scaled to controls: 0 for no effect and ±100 for the full control effect; potency is read from the fitted curve at half-maximal effect.

| Structure (SMILES) | Potency | activity change, negative = inhibition |
| --- | --- | --- |
| CCCn1c(N)c(C(=O)CSc2nnc(-c3ccco3)n2Cc2ccccc2)c(=O)[nH]c1=O | inconclusive: 50.1 µM [inhibitor, partial curve, poor fit] |  |
| CN1C(=O)N(C)C2(CCN(CCOc3ccc(F)cc3)C2)C1=O (stereo unspecified) | active: 50.1 µM |  |
| O=C(CSc1nnnn1-c1ccccc1)N1CCc2ccccc21 | inconclusive: 4.47 µM [inhibitor, full curve] |  |
| Cc1ccc(C(=O)Nc2ccc3c(c2)OCO3)cc1 | inactive |  |
| COc1cccc(NC(=O)c2cc(=O)c3ccccc3o2)c1 | inconclusive: 126 µM [inhibitor, partial curve, poor fit] |  |
| O=C(C1=C(O)C(=O)N(CCc2ccccc2)C1c1cccnc1)c1ccco1 (stereo unspecified) | inconclusive: 5.62 µM [inhibitor, full curve, poor fit] and inconclusive: 3.55 µM [inhibitor, full curve, poor fit] |  |
| COc1cccc2cc(C(=O)N(Cc3ccccc3)Cc3ccccc3)c(=O)oc12 | inconclusive: 0.316 µM [inhibitor, full curve, poor fit] |  |
| Cc1ccc(-c2cnc(CCC(=O)NCc3ccco3)o2)cc1C | inconclusive: 56.2 µM [inhibitor, single point] |  |
| Cn1nnc(NC(=S)NC(=O)c2ccco2)n1 | inconclusive: 7.08 µM [inhibitor, full curve, poor fit] |  |
| COc1ccc(-c2nc3c4ccccc4ccn3c2Cc2cccc(F)c2)cc1OC | inconclusive: 6.31 µM [inhibitor, full curve, poor fit] |  |
| CCOC(=O)Nc1ccc2c(c1)N(C(=O)CCN1CCN(C)CC1)c1ccccc1S2 | inconclusive: 20 µM [inhibitor, partial curve, poor fit] |  |
| O=C(CNC(=O)c1ccccc1F)OCC(=O)c1ccc(Cl)s1 | inconclusive: 79.4 µM [inhibitor, single point] |  |
| CCc1nc(NCCCO)c(C#N)c2c1CCCC2 | inactive |  |
| Cc1ccc(-c2nc(Cn3cnc4sccc4c3=O)co2)c(C)c1 | inconclusive: 100 µM [inhibitor, single point] |  |
| Cc1ccccc1NNC(=O)C(=O)NNc1ccccc1C | inconclusive: 2.24 µM [inhibitor, full curve, poor fit] |  |
| CCc1cccc(NC(=O)Cn2c(C)cc3nc4n(c(=O)c32)CCCCC4)c1 | inconclusive: 39.8 µM [inhibitor, full curve, poor fit] |  |
| CCOc1ncccc1CNC(=O)C1CCCN1S(C)(=O)=O (stereo unspecified) | inactive |  |
| O=c1[nH]c(N2CCN(c3ccccc3)CC2)nc2c1CCC2 | inactive |  |
| CC(=O)Nc1ccc(-c2csc(NC(C)(C)C)n2)cc1 | active: 10 µM |  |
| CCN(CC)CCOC(=O)c1ccc(NC(=O)CCCN2C(=O)/C(=C/c3cccs3)SC2=S)cc1 | inconclusive: 44.7 µM [inhibitor, partial curve] |  |
| CC(=O)Nc1ccc2nc(-c3cccs3)[nH]c2c1 | inactive |  |
| CN(C)C[C@@H]1CN(c2ccccn2)C[C@H]1NC(=O)CC1=CCCCC1 | inconclusive: 28.2 µM [inhibitor, partial curve] |  |

In the list so far, these have sulfur.

| Structure (SMILES) | Potency | activity change, negative = inhibition |
| --- | --- | --- |
| CCCn1c(N)c(C(=O)CSc2nnc(-c3ccco3)n2Cc2ccccc2)c(=O)[nH]c1=O | inconclusive: 50.1 µM [inhibitor, partial curve, poor fit] |  |
| O=C(CSc1nnnn1-c1ccccc1)N1CCc2ccccc21 | inconclusive: 4.47 µM [inhibitor, full curve] |  |
| Cn1nnc(NC(=S)NC(=O)c2ccco2)n1 | inconclusive: 7.08 µM [inhibitor, full curve, poor fit] |  |
| CCOC(=O)Nc1ccc2c(c1)N(C(=O)CCN1CCN(C)CC1)c1ccccc1S2 | inconclusive: 20 µM [inhibitor, partial curve, poor fit] |  |
| O=C(CNC(=O)c1ccccc1F)OCC(=O)c1ccc(Cl)s1 | inconclusive: 79.4 µM [inhibitor, single point] |  |
| Cc1ccc(-c2nc(Cn3cnc4sccc4c3=O)co2)c(C)c1 | inconclusive: 100 µM [inhibitor, single point] |  |
| CCOc1ncccc1CNC(=O)C1CCCN1S(C)(=O)=O (stereo unspecified) | inactive |  |
| CC(=O)Nc1ccc(-c2csc(NC(C)(C)C)n2)cc1 | active: 10 µM |  |
| CCN(CC)CCOC(=O)c1ccc(NC(=O)CCCN2C(=O)/C(=C/c3cccs3)SC2=S)cc1 | inconclusive: 44.7 µM [inhibitor, partial curve] |  |
| CC(=O)Nc1ccc2nc(-c3cccs3)[nH]c2c1 | inactive |  |

Next compounds

| Structure (SMILES) | Potency | activity change, negative = inhibition |
| --- | --- | --- |
| COc1ccccc1NS(=O)(=O)c1ccc(N/N=C/c2ccccc2OCC(=O)O)c([N+](=O)[O-])c1 | inconclusive: 56.2 µM [inhibitor, partial curve, poor fit] |  |
| O=C(Nc1nncs1)c1ccc(F)c(S(=O)(=O)N2CCCCC2)c1 | inconclusive: 89.1 µM [inhibitor, partial curve, poor fit] |  |
| Oc1ccc(N2CCN(c3nnnn3-c3ccccc3)CC2)cc1 | inconclusive: 39.8 µM [inhibitor, partial curve, poor fit] |  |
| CCOC(=O)C1=C(C)OC(N)=C(C#N)C1c1ccc(C(F)(F)F)cc1 (stereo unspecified) | active: 15.8 µM |  |
| COc1ccc(NC(=O)O[C@@H]2CO[C@H]3[C@@H]2OC[C@@H]3NS(=O)(=O)c2ccccc2C#N)cc1 | inconclusive: 25.1 µM [inhibitor, full curve] |  |
| O=C(O)c1ccc(N2CCN(Cc3ccc4c(c3)OCO4)CC2)c([N+](=O)[O-])c1 | inconclusive: 39.8 µM [inhibitor, partial curve, poor fit] |  |
| CN(C)CCOc1ccc(/C(=C(/CCCl)c2ccccc2)c2ccccc2)cc1 | inconclusive: 50.1 µM [inhibitor, partial curve, poor fit] |  |
| O=C(COc1ccccc1)N1CC2(C1)CN(Cc1ccc(Cl)cc1)C(=O)O2 | inconclusive: 100 µM [inhibitor, partial curve] |  |
| CCC(=O)N1CCCc2cc(S(=O)(=O)N3CCC(C(=O)NC4CCC(C)CC4)CC3)ccc21 (stereo unspecified) | inconclusive: 44.7 µM [inhibitor, partial curve, poor fit] |  |
| COc1ccc(-n2c(CCc3ccccc3)nnc2SCC(=O)NCc2ccccc2)cc1 | inactive |  |
| Cc1cc(C)c2ccc(C(=O)O)cc2n1 | inactive |  |
| Cc1[nH]n(-c2ccccc2)c(=O)c1N=Nc1c(O)cc(S(=O)(=O)N(C)C)c2ccccc12 | inactive |  |
| CCOc1ccccc1C(=O)Nc1cccc(-c2nc3ccccc3s2)c1 | inconclusive: 178 µM [inhibitor, partial curve, poor fit] |  |
| Cc1cc(Br)ccc1-c1ccc(C=O)o1 | inconclusive: 11.2 µM [inhibitor, partial curve] |  |
| COc1ccccc1/C=C/c1nc(C#N)c(NCc2ccccc2)o1 | inconclusive: 63.1 µM [inhibitor, partial curve, poor fit] and inconclusive: 112 µM [inhibitor, single point] |  |
| COc1ccc(-c2cn(-c3cccc(C)c3)c(=O)[nH]2)cc1OC | inconclusive: 44.7 µM [inhibitor, partial curve, poor fit] |  |
| CCCCC(=O)NC(=S)Nc1c(C)cc(Br)cc1C | inconclusive: 35.5 µM [inhibitor, partial curve] |  |
| Cc1cccc(-n2nc(-c3c(C)nc4scc(CC(=O)NC5CC5)n4c3=O)cc2C)c1 | inactive |  |
| CC(C)(C)c1ccc(NC(=O)c2ccc(F)cc2F)cc1 | inconclusive: 0.282 µM [inhibitor, full curve, poor fit] |  |
| O=C(Nc1cccc2ccccc12)c1cccn2c(-c3ccccc3F)nnc12 | inconclusive: 100 µM [inhibitor, partial curve, poor fit] |  |
| CC(=O)Nc1ccc(C(=O)OCc2ccc(F)cc2Cl)cc1 | inconclusive: 112 µM [inhibitor, single point] |  |
| CC(C)S(=O)(=O)N1CCC(c2nnc3n2CCNC3)CC1 | inconclusive: 2.82 µM [inhibitor, full curve, poor fit] |  |

| Structure (SMILES) | Potency | activity change, negative = inhibition |
| --- | --- | --- |
| Nc1nccnc1C(=O)NCCc1c[nH]c2ccccc12 |  | inconclusive: -43.7% [inhibitor] |
| NS(=O)(=O)c1ccc(CCNC(=O)COC(=O)c2ccc([N+](=O)[O-])o2)cc1 | inconclusive: 89.1 µM [inhibitor, single point] |  |
| O=C(CNC(=O)c1ccc(Br)cc1)NCC(=O)OCC(=O)c1ccccc1 | inconclusive: 112 µM [inhibitor, partial curve, poor fit] |  |
| COc1ccc(-n2ncc(C(=O)NCc3cccs3)c2C2CCN(C(=O)OC(C)(C)C)CC2)cc1 | inactive |  |
| CCCc1nnc(SCC(=O)Nc2ccc3c(c2)OCCO3)n1CCOC | inconclusive: 0.199 µM [inhibitor, full curve, poor fit] |  |
| Cc1ccc(C#CC(C)(O)C(C)(C)C)cn1 (stereo unspecified) | inconclusive: 112 µM [inhibitor, single point] |  |
| Cc1ccc(S(=O)(=O)c2nc(S(C)(=O)=O)sc2N2CCC(C)CC2)cc1 | inactive |  |
| CCc1ccccc1N(CC)C(=O)c1cc2c(s1)-c1ccccc1SC2 | inconclusive: 4.47 µM [inhibitor, full curve, poor fit] |  |
| O=C(C1CC(=O)N(c2ccc(F)cc2)C1)N1CCCCC1 (stereo unspecified) | inactive |  |
| Cc1cccc(OCC(=O)O/N=C(\N)c2ccc(Br)cc2)c1 | inconclusive: 3.16 µM [inhibitor, full curve, poor fit] |  |
| Cc1cccc(CNc2cc(-c3cccnc3)ncn2)c1 | inconclusive: 39.8 µM [inhibitor, partial curve, poor fit] |  |
| CC[n+]1c(C)n(-c2ccccc2)c2ccc(NC(C)=O)cc21 | active: 39.8 µM |  |
| CCc1nn2c(=O)cc(COC(=O)c3ccccc3NC(=O)c3ccccc3F)nc2s1 | inconclusive: 141 µM [inhibitor, single point] |  |
| Cc1ccc(NN2C(=O)C=C(c3ccc(Cl)cc3)C2=O)cc1 | inconclusive: 20 µM [inhibitor, full curve, poor fit] |  |
| NNC(=O)C1COc2cc3ccccc3cc2O1 (stereo unspecified) | inactive |  |
| COC1C(=O)N(c2cccc(F)c2)C12CCN(S(=O)(=O)c1ccccc1C)CC2 (stereo unspecified) | inactive |  |
| O=C1OCC(CO)(CO)N=C1NNc1ccccc1Cl | inconclusive: 11.2 µM [inhibitor, full curve] |  |
| CC(=O)Nc1ccc(OCc2cc(=O)n3ccsc3n2)cc1 | inconclusive: 31.6 µM [inhibitor, partial curve, poor fit] |  |
| Cc1nc2ccccc2c2oc(C(=O)Nc3ccc(C(C)C)cc3)cc12 | inactive |  |
| CC1C(=O)CCN(C)C1C (stereo unspecified) | inconclusive: 44.7 µM [inhibitor, partial curve, poor fit] |  |
| COC(=O)c1ccccc1C(=O)O | inconclusive: 39.8 µM [inhibitor, partial curve, poor fit] |  |
| CN(C)CCOC(=O)C1(c2ccccc2)CCCC1 | inconclusive: 79.4 µM [inhibitor, single point] |  |

Sorted by length of the SMILES (high to low): some entries from above.

| Structure (SMILES) | Potency | activity change, negative = inhibition |
| --- | --- | --- |
| COc1ccc(-n2c(CCc3ccccc3)nnc2SCC(=O)NCc2ccccc2)cc1 | inactive |  |
| Cc1ccc(-c2cnc(CCC(=O)NCc3ccco3)o2)cc1C | inconclusive: 56.2 µM [inhibitor, single point] |  |
| CCOc1ncccc1CNC(=O)C1CCCN1S(C)(=O)=O (stereo unspecified) | inactive |  |
